These are yes or no findings as the source states them, for the method shown. In cells and extracts the contact can be indirect. Some entries that bind do so weakly or less than the wild type.
How the values were obtained:
Experiment in all cases: co-IP; Ydj1-FLAG (wild-type, 6KQ, 6KR) from yeast extract on anti-FLAG M2 magnetic beads, 50 mM Na-phosphate pH 8.0, 300 mM NaCl, 0.01% Tween-20, 4 C overnight, eluted with 3X FLAG peptide; blot with antisera to Ssa1
[1] = target: Ydj1-FLAG wild-type (yeast) (UniProt P25491)
Ydj1-FLAG 6KR (yeast) = Ydj1-FLAG 6KR (yeast) (UniProt P25491)
Ydj1-FLAG 6KQ (yeast) = Ydj1-FLAG 6KQ (yeast) (UniProt P25491)

Amino acid sequences for entries named in this document (tags omitted). A change or cut given only in a name is not applied to a line headed by its entry. Chains listed by the source or under a name are the forms on record and can include a tag or linker.
UniProt P25491: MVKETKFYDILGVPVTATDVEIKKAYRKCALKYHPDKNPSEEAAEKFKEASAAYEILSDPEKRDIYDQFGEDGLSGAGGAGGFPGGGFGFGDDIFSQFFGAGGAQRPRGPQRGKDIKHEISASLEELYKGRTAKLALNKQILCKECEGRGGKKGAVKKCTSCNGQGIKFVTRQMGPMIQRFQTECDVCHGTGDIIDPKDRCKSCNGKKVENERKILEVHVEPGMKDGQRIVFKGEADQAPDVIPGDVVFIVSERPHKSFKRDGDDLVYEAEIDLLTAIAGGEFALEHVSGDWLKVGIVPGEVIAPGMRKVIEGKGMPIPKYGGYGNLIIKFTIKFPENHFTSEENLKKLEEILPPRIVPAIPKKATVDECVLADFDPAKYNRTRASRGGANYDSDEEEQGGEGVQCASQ
Ydj1-FLAG 6KR (P25491, form named): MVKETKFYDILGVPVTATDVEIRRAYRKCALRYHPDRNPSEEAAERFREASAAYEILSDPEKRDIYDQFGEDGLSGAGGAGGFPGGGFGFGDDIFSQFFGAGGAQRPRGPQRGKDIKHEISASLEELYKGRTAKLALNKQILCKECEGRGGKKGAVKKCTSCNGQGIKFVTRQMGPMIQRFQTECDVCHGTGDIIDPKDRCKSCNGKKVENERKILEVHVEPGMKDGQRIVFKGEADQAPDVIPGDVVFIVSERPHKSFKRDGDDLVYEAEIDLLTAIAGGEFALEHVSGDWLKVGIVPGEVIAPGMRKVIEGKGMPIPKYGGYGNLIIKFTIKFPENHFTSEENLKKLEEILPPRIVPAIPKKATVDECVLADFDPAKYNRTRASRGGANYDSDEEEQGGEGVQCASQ
Ydj1-FLAG 6KQ (P25491, form named): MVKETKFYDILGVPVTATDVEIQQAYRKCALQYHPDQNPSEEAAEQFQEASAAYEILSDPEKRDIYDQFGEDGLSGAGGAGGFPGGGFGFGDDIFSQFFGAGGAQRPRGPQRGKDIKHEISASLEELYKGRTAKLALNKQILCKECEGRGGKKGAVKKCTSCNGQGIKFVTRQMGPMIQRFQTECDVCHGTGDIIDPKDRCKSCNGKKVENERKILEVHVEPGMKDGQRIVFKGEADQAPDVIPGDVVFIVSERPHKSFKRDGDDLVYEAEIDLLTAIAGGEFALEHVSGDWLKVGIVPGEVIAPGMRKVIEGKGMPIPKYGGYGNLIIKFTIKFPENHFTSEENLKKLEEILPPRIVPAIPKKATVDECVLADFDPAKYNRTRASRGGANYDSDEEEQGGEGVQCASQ
UniProt P10591: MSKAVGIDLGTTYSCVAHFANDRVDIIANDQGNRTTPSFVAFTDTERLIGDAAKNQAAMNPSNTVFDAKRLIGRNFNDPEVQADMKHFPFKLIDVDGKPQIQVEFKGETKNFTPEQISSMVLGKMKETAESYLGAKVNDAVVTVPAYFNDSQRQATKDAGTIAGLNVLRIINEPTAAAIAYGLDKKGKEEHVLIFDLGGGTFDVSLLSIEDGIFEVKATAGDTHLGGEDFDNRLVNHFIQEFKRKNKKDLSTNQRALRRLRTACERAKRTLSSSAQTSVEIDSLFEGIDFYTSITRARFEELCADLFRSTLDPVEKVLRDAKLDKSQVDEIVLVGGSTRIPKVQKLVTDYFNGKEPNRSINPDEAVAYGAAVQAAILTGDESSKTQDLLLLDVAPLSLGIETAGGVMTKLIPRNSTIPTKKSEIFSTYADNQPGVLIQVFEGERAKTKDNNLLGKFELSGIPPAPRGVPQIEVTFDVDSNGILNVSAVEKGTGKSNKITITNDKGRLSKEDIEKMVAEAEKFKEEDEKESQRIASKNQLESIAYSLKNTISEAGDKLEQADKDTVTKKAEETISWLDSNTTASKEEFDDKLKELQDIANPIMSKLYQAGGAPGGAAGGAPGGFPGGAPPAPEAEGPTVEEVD

Ssa1 (endogenous, yeast) (from UniProt P10591 1-642)
binding [1]: binds | binding (Ydj1-FLAG 6KR (yeast)): binds | binding (Ydj1-FLAG 6KQ (yeast)): binds weakly

Source: article doi:10.1101/2024.06.13.598777, “Acetylation of the yeast Hsp40 chaperone protein Ydj1 fine-tunes proteostasis and translational fidelity” (bioRxiv, 2024)
